Source: PMC12831199
These are yes or no findings as the source states them, for the method shown. In cells and extracts the contact can be indirect. Binding calls can cover weak binding; strength is not graded here.

Chains of the proteins cited; added tags and fusions are not shown. Lines headed by an entry give the natural chain unless they say otherwise; changes in a name come on top. Residues count along the entry.
UniProt P23201, residues 1-124: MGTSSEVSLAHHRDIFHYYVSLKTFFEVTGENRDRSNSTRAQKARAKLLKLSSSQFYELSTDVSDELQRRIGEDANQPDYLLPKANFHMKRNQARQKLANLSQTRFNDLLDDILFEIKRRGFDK
UniProt Q12317: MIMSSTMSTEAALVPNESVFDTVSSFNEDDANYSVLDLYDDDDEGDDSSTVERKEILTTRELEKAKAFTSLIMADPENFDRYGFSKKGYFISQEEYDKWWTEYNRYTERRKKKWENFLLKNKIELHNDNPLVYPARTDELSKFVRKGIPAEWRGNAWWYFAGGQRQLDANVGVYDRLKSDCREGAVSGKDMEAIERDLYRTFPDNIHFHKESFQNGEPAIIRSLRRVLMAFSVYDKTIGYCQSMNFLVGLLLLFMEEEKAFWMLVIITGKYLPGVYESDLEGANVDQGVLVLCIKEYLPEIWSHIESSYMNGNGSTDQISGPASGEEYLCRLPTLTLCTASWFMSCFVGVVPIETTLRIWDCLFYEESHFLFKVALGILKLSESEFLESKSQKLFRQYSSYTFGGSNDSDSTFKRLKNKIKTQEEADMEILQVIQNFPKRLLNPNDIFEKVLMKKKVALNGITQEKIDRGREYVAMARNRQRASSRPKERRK

Target: SHD1CRU (Saccharomyces cerevisiae) (UniProt P23201)
Experiment: split reporter; small-scale Split-Ub: diploid cells co-expressing a Nub and a CRU fusion spotted in 10-fold serial dilutions from OD600=1 on SD medium with 5-FOA, 30°C, 2-5 days

Nub fusion of Msb4 with the D0A exchange (from UniProt Q12317)
binding: binds
